Experimental data published in patent US20170198363A1, “COMPOSITIONS AND METHODS FOR DETECTION OF SMALL MOLECULES” (COLORADO STATE UNIVERSITY RESEARCH FOUNDATION, priority 2015, published 2017).
For at least one compound, name, drawing or mass did not settle the structure.

Test system: plant biosensor (G-DIG1-V-Matα2)
Assay: Induction of the plant biosensor by steroids
Format: in vivo, Arabidopsis thaliana
Conditions: transgenic Arabidopsis

In the case of C[C@]12CC[C@H](O)C[C@H]1CC[C@@H]1[C@@H]2C[C@@H](O)[C@]2(C)[C@@H](C3=CC(=O)OC3)CC[C@]12O [digoxigenin], the “induction of the plant biosensor” value is reported as “capable of inducing”.
